For this assay, the system named is P388 leukemia ip, CD2F1 mice, survival T/C. The assay can be described thus: NCI In Vivo Anticancer Drug Screen. Data for tumor model P388 Leukemia (intraperitoneal) in CD2F1 (CDF1) mice. The note with it: T/C endpoint: median survival time, higher T/C = longer survival.
Setting [1] is: dose: 12.5 mg/kg/injection, schedule: Q01DX005 (ip), vehicle: Klucel (hydroxypropylcellulose) (HPC).
The mark [2] stands for this setting: dose: 50.0 mg/kg/injection, schedule: Q01DX005 (ip), vehicle: Klucel (hydroxypropylcellulose) (HPC).
Setting [3] is: dose: 100.0 mg/kg/injection, schedule: Q01DX005 (ip), vehicle: Klucel (hydroxypropylcellulose) (HPC).
Where [4] appears, read: dose: 200.0 mg/kg/injection, schedule: Q01DX005 (ip), vehicle: Klucel (hydroxypropylcellulose) (HPC).
Setting [5] is: dose: 100.0 mg/kg/injection, schedule: Q01DX005 (ip), vehicle: saline with Tween-80.
[6] abbreviates: dose: 200.0 mg/kg/injection, schedule: Q04DX003 (ip), vehicle: saline with Tween-80.
Where [7] appears, read: dose: 400.0 mg/kg/injection, schedule: Q04DX003 (ip), vehicle: saline with Tween-80.
Where [8] appears, read: dose: 50.0 mg/kg/injection, schedule: Q01DX009 (ip), vehicle: saline.
Setting [9] is: dose: 200.0 mg/kg/injection, schedule: Q01DX009 (ip), vehicle: saline.
[10] abbreviates: dose: 50.0 mg/kg/injection, schedule: Q01DX009 (ip), vehicle: Klucel (hydroxypropylcellulose) (HPC).
[11] abbreviates: dose: 200.0 mg/kg/injection, schedule: Q01DX005 (ip), vehicle: saline with Tween-80.
Setting [12] is: dose: 25.0 mg/kg/injection, schedule: Q01DX009 (ip), vehicle: saline with Tween-80.
[13] abbreviates: dose: 50.0 mg/kg/injection, schedule: Q01DX009 (ip), vehicle: saline with Tween-80.
Setting [14] is: dose: 100.0 mg/kg/injection, schedule: Q01DX009 (ip), vehicle: saline with Tween-80.
The mark [15] stands for this setting: dose: 200.0 mg/kg/injection, schedule: Q01DX009 (ip), vehicle: saline with Tween-80.
The mark [16] stands for this setting: dose: 240.0 mg/kg/injection, schedule: Q01DX005 (ip), vehicle: saline with Tween-80.

The list does not hold the whole screen: it is rich in T/C values a quarter to a half above the control, in often repeated tests (any T/C) and in doses without a T/C. Further doses and runs are listed elsewhere. T/C is the treated group as % of the vehicle group. Some doses have a count of surviving animals in place of a T/C: the source holds a T/C of zero for them, seemingly a mark for toxic or unscored doses. Some survivor counts are full or nearly so, which does not show that the dose was tolerated: survival well below the control is almost never listed, so the zero probably covers shortened survival too. Counts of survivors are from the toxicity check (mostly the fifth day) where no day follows; animals may have died later. Schedule codes are those of the source, taken here to give the interval after Q, in days (D) or hours (H), and the number of doses after X. Some doses were run more than once; the results are listed from low to high. Where survival is the endpoint, this PubChem deposit counts one and a half times the control or more as active, and values a quarter to a half above the control carry no call in these data; other NCI protocols may use other cut-offs.

With `NC(=O)C1C2CCC(O2)C1C(=O)O` (centres undefined), the survivor count is listed as 1 of 6 (dose: 6.25 mg/kg/injection, schedule: Q01DX005 (ip), vehicle: Klucel (hydroxypropylcellulose) (HPC)); 0 of 6 under setting [1]; 0 of 6 (dose: 25.0 mg/kg/injection, schedule: Q01DX005 (ip), vehicle: Klucel (hydroxypropylcellulose) (HPC)); 0 of 6 under setting [2]; 0 of 6 under setting [3]; 0 of 6 under setting [4].

With `CCC1=CCC2C(=O)c3cc4ccccc4cc3C(=O)C2C1` (centres undefined), the survivor count is reported as 5 of 5 (dose: 50.0 mg/kg/injection, schedule: Q01DX005 (ip), vehicle: saline with Tween-80) and 0 of 5 under setting [5].

As for `CCOC(=O)C(C(=O)OCC)c1nc[nH]c1[N+](=O)[O-]`, the survivor count is listed as 6 of 6 under setting [6] and 6 of 6 under setting [7].

Consider `CCN(C)N=Nc1ccc(C(N)=O)cc1`, for which the T/C reads like this: under setting [2], 127 % of control; (dose: 100.0 mg/kg/injection, schedule: Q01DX005 (ip), vehicle: Klucel (hydroxypropylcellulose) (HPC), evaluated on day 20) 136 % of control; (dose: 100.0 mg/kg/injection, schedule: Q01DX005 (ip), vehicle: Klucel (hydroxypropylcellulose) (HPC), evaluated on day 30) 136 % of control. Further, under setting [4], the survivor count is 5 of 5.

For the molecule `CN(C)CCC[n+]1cc2c3ccccc3c(N)cc2c2ccccc21`, the survivor count is 6 of 6 (dose: 50.0 mg/kg/injection, schedule: Q04DX003 (ip), vehicle: water) and 0 of 6 (dose: 100.0 mg/kg/injection, schedule: Q04DX003 (ip), vehicle: water).

As to `CC(C)C(=O)CCCN1C(=O)c2ccccc2C1=O`, the survivor count (dose: 200.0 mg/kg/injection, schedule: Q01DX009 (ip), vehicle: distilled water + Tween-80) is reported as 2 of 6.

Turning to `CC(C)(c1ccccc1)c1ccc(O)cc1`, the survivor count is listed as 2 of 6 under setting [6] and 2 of 6 under setting [7].

For `CCc1cccc(CC)c1N1C(=O)COCC1=O`, the survivor count under setting [8] was 6 of 6.

`Cc1ccc(Br)cc1CCO`: the survivor count (dose: 400.0 mg/kg/injection, schedule: Q01DX005 (ip), vehicle: Klucel (hydroxypropylcellulose) (HPC)) is on record as 3 of 5.

Take `Cc1ccc(NC(=O)N2CCOCC2)cc1NC(=O)N1CCOCC1`: the survivor count under setting [9] is recorded as 6 of 6.

Consider `CN(C)CCCNc1c2ccccc2nc2cccc([N+](=O)[O-])c12`, for which the T/C (dose: 0.03 mg/kg/injection, schedule: Q01DX009 (ip), vehicle: water) is 126 % of control. For the same molecule, the survivor count was 6 of 6 (dose: 0.25 mg/kg/injection, schedule: Q01DX009 (ip), vehicle: water); 5 of 6 and 6 of 6 (dose: 0.5 mg/kg/injection, schedule: Q01DX009 (ip), vehicle: water); 3 of 6 (dose: 1.0 mg/kg/injection, schedule: Q01DX009 (ip), vehicle: water); 5 of 6 (dose: 500.0 micrograms/kg/injection, schedule: Q01DX009 (ip), vehicle: saline); 4 of 6 (dose: 1000.0 micrograms/kg/injection, schedule: Q01DX009 (ip), vehicle: saline); 2 of 6 (dose: 2000.0 micrograms/kg/injection, schedule: Q01DX009 (ip), vehicle: saline). Further, the survivor count (dose: 4000.0 micrograms/kg/injection, schedule: Q01DX009 (ip), vehicle: saline) is reported as 0 of 6.

In the case of `O=C(NC(=O)C(F)(F)C(F)(F)F)Nc1cccc(F)c1`, the survivor count under setting [10] is given as 6 of 6.

Turning to `Nc1c2c(=O)[nH]c(O)cc2nn1-c1ccccc1`, the survivor count is 2 of 6 under setting [5] and 0 of 6 under setting [11].

For the molecule `CC(C)(C#N)NNC(N)=S`, the survivor count runs as follows: (dose: 25.0 mg/kg/injection, schedule: Q01DX009 (ip), vehicle: saline) 1 of 6; under setting [8], 0 of 6; (dose: 100.0 mg/kg/injection, schedule: Q01DX009 (ip), vehicle: saline) 0 of 6; under setting [9], 0 of 6; (dose: 400.0 mg/kg/injection, schedule: Q04DX003 (ip), vehicle: saline) 0 of 6.

As to `O=C1C=CC(=O)C2=C1CCCC2`, the survivor count is, setting by setting: under setting [12], 0 of 6; under setting [13], 0 of 6.

As for `ClC1=C(Cl)C(Cl)=C(Cl)C1=Cc1ccccc1`, the T/C under setting [12] was 130 % of control and the T/C under setting [13] is 131 % of control. In addition, the survivor count runs as follows: under setting [14], 4 of 6 and 5 of 6; under setting [15], 0 of 6.

In the case of `c1ccc2c(c1)Nc1ccncc1S2`, the survivor count under setting [7] is recorded as 4 of 6.

Turning to `C[C@@H]1O[C@H]2O[C@@H]3[C@@H](C)O[C@@H](c4ccc5c(c4O)C(=O)c4ccc(C[C@@](C)(O)CC(=O)O)c(O)c4C5=O)C[C@H]3O[C@H]2CC1=O`, the survivor count (dose: 188.0 mg/kg/injection, schedule: Q01DX005 (ip), vehicle: Klucel (hydroxypropylcellulose) (HPC)) is 3 of 6.

`COc1ccc2c(NCCCCCCCCNc3c4ccc(OC)cc4nc4ccc(Cl)cc34)c3cc(Cl)ccc3nc2c1`: the survivor count reads like this: (dose: 10.0 mg/kg/injection, schedule: Q01DX009 (ip), vehicle: other) 2 of 6; (dose: 20.0 mg/kg/injection, schedule: Q01DX009 (ip), vehicle: other) 3 of 6.

Regarding `N#CC1C2C1C1C=CC2n2c(=O)n(-c3ccccc3)c(=O)n21` (centres undefined), the survivor count by setting is: under setting [1], 5 of 5; under setting [3], 3 of 5; under setting [4], 0 of 5.

In the case of `NC(=S)N/N=C/c1nc2ccccn2c1[N+](=O)[O-]`, the survivor count under setting [10] was 6 of 6 and the survivor count (dose: 200.0 mg/kg/injection, schedule: Q01DX009 (ip), vehicle: Klucel (hydroxypropylcellulose) (HPC)) is 6 of 6.

Turning to `CC(C)(C)c1cc(C(c2cc3c(cc2O)OCO3)N2CCOCC2)cc(C(C)(C)C)c1O` (centres undefined), under setting [16], the T/C was 127 and 134 % of control. Also, the survivor count (dose: 480.0 mg/kg/injection, schedule: Q01DX005 (ip), vehicle: saline with Tween-80) is recorded as 1 of 6.

In the case of `CCCCCCC1NC1Cc1ccccc1Cl` (centres undefined), the survivor count is given as 0 of 6 under setting [14]; 0 of 6 under setting [15]; 0 of 6 (dose: 400.0 mg/kg/injection, schedule: Q01DX009 (ip), vehicle: saline with Tween-80).

Take `CN1CCc2cc3c(cc2C1O)OCO3` (centres undefined): the survivor count under setting [11] is on record as 2 of 6.

Regarding `COC1=CC(=O)C(OC)=C(C2C(=O)N(C)c3ccccc32)C1=O` (centres undefined), the T/C (dose: 30.0 mg/kg/injection, schedule: Q01DX005 (ip), vehicle: saline) is 133 % of control. Further, the survivor count (dose: 120.0 mg/kg/injection, schedule: Q01DX005 (ip), vehicle: saline with Tween-80) is 6 of 6 and the survivor count under setting [16] was 1 of 6.

Take `COc1ccc2oc(-c3ccc(Cl)cc3)c(N3CCN(C)CC3)c2c1`: the T/C (dose: 240.0 mg/kg/injection, schedule: Q01DX005 (ip), vehicle: saline) is 129 % of control. Further, the survivor count (dose: 480.0 mg/kg/injection, schedule: Q01DX005 (ip), vehicle: saline) is 0 of 6.

Source of the values: PubChem BioAssay AID330 (DTP/NCI, 2004).
